Experiment: GC-MS metabolite profiling of apoplastic fluid from NbSQS silenced and control plants
Settings: level in apoplastic fluid, SQS silenced vs control N. benthamiana

Row | Compound | Ratio (SQS/Control)
1 | OC[C@H]1O[C@H](O[C@H]2[C@H](O)[C@@H](O)C(O)O[C@@H]2CO)[C@H](O)[C@@H](O)[C@@H]1O (mixture of isomers) [Maltose] | 10.37
2 | O[C@@H]1[C@@H](O)[C@@H]2OC[C@@H](O2)[C@H]1O [1,6-Anhydroglucose] | 2.986
3 | O=C(O)C(O)C(O)C(=O)O (centres unmarked) [2,3-Dihydroxybutanedioic acid] | 6.185
4 | O=C[C@H](O)[C@@H](O)[C@H](O)[C@H](O)CO [D-(+)-Glucose] | 8.344
5 | O=C(CO)[C@@H](O)[C@H](O)[C@H](O)CO [D-(−)-Fructose] | 4.982
6 | OC[C@@H](O)[C@@H](O)CO [Erythritol] | 3.258
7 | OCC(O)CO [Glycerol] | 1.968
8 | O=C(O)CC(=O)O [Malonic Acid] | 3.1365
9 | CN1CCCC1c1cccnc1 (centres unmarked) [Nicotine] | 5.367
10 | O=C(O)C(O)CO (centres unmarked) [Propionic Acid, 2,3 Hydroxy] | 5.181
11 | NCCCCN [Putrescine] | 8.56
12 | O=C1CCCN1 [Pyrrolidinone] | 6.372
13 | O=C[C@H](O)[C@H](O)[C@H](O)CO [Ribose] | 7.348
14 | O=C(CO)[C@H](O)[C@@H](O)[C@H](O)CO [Sorbose] | 4.319
15 | OC[C@@H](O)[C@H](O)[C@@H](O)CO [Xylitol] | 6.868
16 | O=C[C@H](O)[C@@H](O)[C@H](O)CO [Xylose] | 3.702
17 | Maltotriose | 6.467

Source: patent US20090138988A1, “MODIFICATION OF PLANT DISEASE RESISTANCE” (priority 2007, published 2009)
